# These are yes or no findings as the source states them, for the method shown. Some binding calls cover weakened binding; strength is not graded here.
# Molecular target: CXCL121 monomer (constitutively monomeric CXCL12 variant, L55C/I58C) (Felis catus (Cat) (Felis silvestris catus)) (UniProt O62657)
# Experiment: 2D NMR
substance,measurement,value
intact CXCR4 1-38 N-terminal domain (from UniProt P61073 1-38) (peptide),binding,binds

# — US20190374607A1
